The supplement of paper PMC5949888
Most values lie at the floor of the assay. Slopes are relative: functional sequences can read slightly below zero.

system: Saccharomyces cerevisiae PS128 hsf1 delta, HSF1(1-493) fusion; test: growth estimate (transactivation domain function in HSF1 fusion, heat-shock survival) (a.u. (slope of normalised read count over time)); higher = stronger growth at 37°C, i.e. more transactivation activity; conditions: library: random library
Experimental: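 Random 60-nt DNA library encoding peptides of up to 20 aa, fused to the C-terminus of yeast HSF1 residues 1-493 (C-terminal TAD deleted) and expressed from the native HSF1 promoter on a CEN plasmid in hsf1-deleted S. cerevisiae PS128. Cells were selected at 37°C on -trp 5-FOA plates for 0, 2, 4, 6 and 8 days and amplicons were sequenced. Growth estimate is the slope of a robust linear fit of total-sum-normalised read counts (normalised to the first time point) over time, using at least 2 replicates. Sequences are classed functional (TAD activity) above a threshold of -0.13, set from stop-codon control sequences.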

Substance	growth estimate
EVFQEIHGVISKNSAIVVRS	< -0.25
LAEDPKAQRICGPTRHLSV	< -0.25
DRHGKTATGPICCGG	< -0.25
PTSCRRPGPKSRRAQL	< -0.25
LSGATRR	< -0.25
RELGSNRVSLRERLRCSCWA	< -0.25
SEFACTDKYKQEHYCLCPAV	< -0.25
RSLRSEVYKSKVTVPRHEGR	< -0.25
SGSSAVERCYI	< -0.25
QNGHRLGVSRWNGVHSAKAI	< -0.25
LPRNSVEVTPV	< -0.25
MWRRAPPNPT	< -0.25
SSTPALRMDISEHSHVRRRP	< -0.25
TRSWGNSGR	< -0.25
TVAIC	< -0.25
EILDQLSTHGIAVEEPTGQP	< -0.25
RGVIVCFASLGNATSASLGA	< -0.25
HSRVCLRSLG	< -0.25
KVSVLGSPICVQIR	< -0.25
NKGETEGD	< -0.25
MAF	< -0.25
TRAS	< -0.25
YIFCSM	-0.248
PMADRCLTVPCRRGKY	< -0.25
RVRPANERVDYLTRVSLEHI	< -0.25

Substance	growth estimate
KRQR	< -0.25
ATLEIHFGAP	< -0.25
SVFSG	< -0.25
ASKFGHRIMDT	-0.229
RAYRRDPRTDRDPETTLSQM	< -0.25
VCSLGVKRLR	< -0.25
FVVRNP	-0.237
VYSDVKVRKVCFGSVRLPAP	< -0.25
NPVRPSVWDLK	< -0.25
KTLSAVAISEERELMLAQ	< -0.25
RRRYPSTLIETKLIPELLLR	< -0.25
SAGSCGIIMT	< -0.25
EKRLLHFG	< -0.25
IAGIAWRAWHFVLIERFLLQ	< -0.25
CRNLVELS	< -0.25
ADV	< -0.25
LTLTALLLQPHPLALQMG	< -0.25
LCELVPPGTPCQSSKLGCHT	< -0.25
LGSV	< -0.25
NSSYALFR	< -0.25
AKVGQMFGVSVGRSYGDVEW	< -0.25
LNPRMCENCSLDSGGWSIPR	< -0.25
GGSVVFI	< -0.25
GIEPLSMLLCPY	< -0.25
DYNRRLES	< -0.25

A second format for some results above:
Substance,growth estimate
EVFQEIHGVISKNSAIVVRS,< -0.25
LAEDPKAQRICGPTRHLSV,< -0.25
DRHGKTATGPICCGG,< -0.25
PTSCRRPGPKSRRAQL,< -0.25
LSGATRR,< -0.25
RELGSNRVSLRERLRCSCWA,< -0.25
SEFACTDKYKQEHYCLCPAV,< -0.25
RSLRSEVYKSKVTVPRHEGR,< -0.25
SGSSAVERCYI,< -0.25
QNGHRLGVSRWNGVHSAKAI,< -0.25
LPRNSVEVTPV,< -0.25
MWRRAPPNPT,< -0.25
SSTPALRMDISEHSHVRRRP,< -0.25
TRSWGNSGR,< -0.25
TVAIC,< -0.25
EILDQLSTHGIAVEEPTGQP,< -0.25
RGVIVCFASLGNATSASLGA,< -0.25
HSRVCLRSLG,< -0.25
KVSVLGSPICVQIR,< -0.25
NKGETEGD,< -0.25
MAF,< -0.25
TRAS,< -0.25
YIFCSM,-0.248
PMADRCLTVPCRRGKY,< -0.25
RVRPANERVDYLTRVSLEHI,< -0.25
KRQR,< -0.25
ATLEIHFGAP,< -0.25
SVFSG,< -0.25
ASKFGHRIMDT,-0.229
RAYRRDPRTDRDPETTLSQM,< -0.25
VCSLGVKRLR,< -0.25
FVVRNP,-0.237
VYSDVKVRKVCFGSVRLPAP,< -0.25
NPVRPSVWDLK,< -0.25
KTLSAVAISEERELMLAQ,< -0.25
RRRYPSTLIETKLIPELLLR,< -0.25
SAGSCGIIMT,< -0.25
EKRLLHFG,< -0.25
IAGIAWRAWHFVLIERFLLQ,< -0.25
CRNLVELS,< -0.25
ADV,< -0.25
LTLTALLLQPHPLALQMG,< -0.25
LCELVPPGTPCQSSKLGCHT,< -0.25
LGSV,< -0.25
NSSYALFR,< -0.25
AKVGQMFGVSVGRSYGDVEW,< -0.25
LNPRMCENCSLDSGGWSIPR,< -0.25
GGSVVFI,< -0.25
GIEPLSMLLCPY,< -0.25

More results:

Substance	growth estimate
EQPNTHQRERWVMLTFSVVS	< -0.25
YPSGRYGSS	< -0.25
DMYGEFVIHGSGTFIRKRVR	< -0.25
EAPSP	< -0.25
ADGDSNHTLHTALQYSGGIH	< -0.25
WTRRM	< -0.25
LASVP	< -0.25
AIAVRSAHALGSPIRIHARL	< -0.25
ATDKAY	< -0.25
ELW	< -0.25
EHRFPGAFVE	< -0.25
SKEAQASSPAGRCHNNNEPR	< -0.25
PMF	< -0.25
DLIAPLESL	-0.145
ESRDFVPTREATIG	< -0.25
FRPGPKFVWLYRTHRTAFST	-0.237
ASLSWK	< -0.25
WFIHARKRPIADAVLTGQPT	< -0.25
SFLTAKSTCVNLKAIAIDVP	< -0.25
FTDRLKGRGFSRANVVKDFG	< -0.25
WAGMQGGALPHLYL	< -0.25
PHLKHSDSSVNCPGALVPAA	< -0.25
VLPSSA	< -0.25
YAISSSGPSGVVDIS	< -0.25
IGPTERTDSSQRKARSP	< -0.25

Substance	growth estimate
SAQSFGLIRKAGAVRQHQGG	< -0.25
PVKYCRPTRDTQKFEPR	< -0.25
GNLCAMS	< -0.25
RRYVRRGRVCTLK	< -0.25
RGYRTLPRA	< -0.25
LDGP	< -0.25
SDYTSKPL	< -0.25
MRLVCLNLYLKAAFVLYSQK	< -0.25
RLYSEEIPFGEKGLHEVTTI	< -0.25
VKLGVGSDRKTDPYID	< -0.25
AHEC	< -0.25
FAVIPFGCLGVELSLIHARA	< -0.25
VSSALHDSY	< -0.25
FVRGRTLHC	< -0.25
LLERIQPDMNTSSN	< -0.25
VDTCLASRRVSKQGSAWHAM	< -0.25
SRDL	< -0.25
VRRGLLCGSTMRWERSGV	< -0.25
TTHWGTILAEDQQSIHCGYS	< -0.25
RQYSLPNGSNAEHFWVYRAT	< -0.25
CKSG	< -0.25
NLSGTNHCA	< -0.25
VSHLL	< -0.25
GPSG	< -0.25
LRCLPLVASQNKPSSAKFSD	< -0.25

Substance	growth estimate
RESEDPIFSYFLTRFVSKVV	< -0.25
ETQMVRSECWNYCYRQRISG	< -0.25
RWLKET	< -0.25
AHSVPPVSLAAGIRGTMRPL	< -0.25
LCVEYDRRQAGFGLDLRPQG	< -0.25
LRRIKGKRQRLWL	< -0.25
LGFSKRF	< -0.25
CSQVTGPWGR	< -0.25
PTATSVRQCTTSWEGSVFGP	< -0.25
KCVWPSIRSPPIIGDRGVGS	< -0.25
GDLVLVGYGRLTAPWAEWHY	< -0.25
LYGFFWFHLAPCRSAVGTRC	< -0.25
DLD	0.0776
PTGLKCSFSGFFYHAAFPNR	< -0.25
GFVLRGPGTGRSKVVKLPSM	< -0.25
LVT	< -0.25
GQVASCSPGYRASSLRSVST	< -0.25
IGTPPLRGPEVTR	-0.208
RRADEYSGVMRA	< -0.25
GIVGNTLIFERSHHSRERLQ	< -0.25
NTEQFGRAFPAGMLG	< -0.25
AVQGQEFCSRVCVVDQSTPT	< -0.25
FLADTRTP	< -0.25
QVQGTLRFPRIENDWVCCKG	< -0.25
YTATADRATP	-0.228

Substance	growth estimate
SDWRLQKMARGWLLSSGDTS	-0.245
PISFHVNLSQTSLPPIAQFA	< -0.25
RIRHILNQSIENA	< -0.25
YDSSNYECG	< -0.25
AMFMEKFYRGL	< -0.25
TRGYISRRF	< -0.25
RKGIRFRTMI	< -0.25
PRTSCAVLKTLLAVRELLAQ	< -0.25
GRGG	< -0.25
HKRSVQIPRGNGDSHTIRGG	< -0.25
NWCILRITRR	< -0.25
HTPPR	< -0.25
IFQHRRQP	< -0.25
RVVRLKSY	< -0.25
PSCSLVLIRIAFDRGLNILH	< -0.25
RKVRWRNRFVERKMAHCGYV	< -0.25
VGFTHSACSSAVPYQSGYP	< -0.25
MRAVLNLRRQQSTAGRSPA	< -0.25
LPGKPSVSRG	< -0.25
RIYTTPTRLSKIGAGQQLVA	< -0.25
TVHRVILASGRK	< -0.25
TAL	< -0.25
VFDLVPGNPATE	< -0.25
VLRLV	< -0.25
AECADGKRPPGLVASRG	-0.198

Substance	growth estimate
GKKTCRPEGN	< -0.25
ESQAMHFGAISPPSMFFCPG	< -0.25
SQCVSLATRGYECHNFQRRT	< -0.25
EVVHVTYAVSAGGGT	< -0.25
GAETSCSIVPTSTSSASGSW	< -0.25
YSRRKGSVGDRHIYAVATDK	< -0.25
EVDCWGLCRSAADRHDLPTV	< -0.25
FRFYST	< -0.25
KSLVCRTAISIRESTCMCSS	< -0.25
LFHSVLNASATAVTREVTYD	< -0.25
NSNALTVSFAGKDFAGIATH	< -0.25
EGSGSCYKRPSLRIGKTGVV	< -0.25
KQKPGRTNHNFPVFGCE	< -0.25
LKRQGFGV	< -0.25
FAQSSLCMTL	< -0.25
TAGSEPAGAACQKSLNLGCN	< -0.25
SRRVHDGSGYTSVIKARINS	< -0.25
SVTRRRPRLRPAQLS	-0.241
IMGRERRRSEHYGFWIEKAL	< -0.25
LMHLSVALVDLLLLNV	< -0.25
RDKNSV	< -0.25
LQNRGEEPVLPLPLETPGG	< -0.25
FRASLW	< -0.25
DFTANAGGRNSQSEPAEGAL	-0.243
LSSLSGLRAWPVYSAPTSSA	< -0.25

Substance	growth estimate
NVAGEQVFERPRPSIRT	< -0.25
RHVVIASLLRLTGILVGV	< -0.25
SWYILKYSPMGRHSALAPMA	< -0.25
GTVSSIRDEYVMRETRGVKS	< -0.25
SANAGKMYL	< -0.25
ADVRVRSCGLGTAPRMVICK	< -0.25
IQRSKERW	< -0.25
IRQPFNLSTWGSTKGITRQ	< -0.25
AMGIRSHWTMGNTVMDLLTL	< -0.25
APPWILFVPDWATSRNI	< -0.25
RSARRFQAA	< -0.25
LLYPTGIVCKKGTCFYSQRM	< -0.25
PSLLRLPSKRPCSKLGVTVR	< -0.25
AHTSSGGTG	< -0.25
CENQDACARSQWGSADNEPG	< -0.25
AFEGLDAHF	< -0.25
VKSLYPSESTEFFGAVVRVH	< -0.25
ERMVTQ	< -0.25
FVTPGSRQ	< -0.25
SYLRRVGVMCRTLK	< -0.25
